# In PubChem BioAssay AID2284334 (EPA ToxCast):
# Sequences of proteins named here, by UniProt entry; tags and fusion partners are left off. A change or cut given only in a name is not applied to a line headed by its entry.
# UniProt Q07869: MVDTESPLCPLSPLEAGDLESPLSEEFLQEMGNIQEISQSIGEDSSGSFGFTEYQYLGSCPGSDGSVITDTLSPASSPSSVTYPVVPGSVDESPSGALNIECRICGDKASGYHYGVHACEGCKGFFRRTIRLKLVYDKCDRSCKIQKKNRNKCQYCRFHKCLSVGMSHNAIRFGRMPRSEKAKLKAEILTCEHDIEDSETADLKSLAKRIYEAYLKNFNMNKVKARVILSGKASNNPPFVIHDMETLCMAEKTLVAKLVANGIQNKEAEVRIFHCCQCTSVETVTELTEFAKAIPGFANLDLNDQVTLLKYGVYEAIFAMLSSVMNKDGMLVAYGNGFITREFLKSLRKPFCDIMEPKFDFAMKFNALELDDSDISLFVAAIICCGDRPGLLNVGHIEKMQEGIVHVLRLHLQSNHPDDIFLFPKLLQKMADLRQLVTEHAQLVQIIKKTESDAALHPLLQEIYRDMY
# The entries are a selection whose mix differs from that of the whole data set. Results filed as inconclusive are left out. Active and inactive are the calls of the source. The calls were made as follows: active = hit-call score of the fitted dose curve at least 0.9, where 1 is the maximum; inconclusive = response in the unintended direction; inactive = score below 0.9.
# Target: human Peroxisome Proliferator-activated Receptor alpha (PPARa), PPARA (gene 5465) (UniProt Q07869)
# Test: ATG_hPPARa_EcoTox2: Attagene TRANS-FACTORIAL EcoTox-2 HepG2 Assay for human Peroxisome Proliferator-activated Receptor alpha (PPARa)
# Procedure: ATG_EcoTox2 is a cell-based, multiplexed assay created by modifying the existing Attagene TRANS-FACTORIAL system to include a panel of nuclear receptors from some or all the following species: human (Homo sapiens), african clawed frog (Xenopus laevis), rainbow trout (Oncorhynchus mykiss), japanese medaka (Oryzias latipes), and zebrafish (Danio rerio). The ECOTOX2-FACTORIAL format uses HepG2, a human liver cell line, with measurements taken at 24 hours after chemical dosing in a 24-well plate. ATG_hPPARa_EcoTox2 is one of 29 assay components calculated in the ATG_EcoTox2 assay. It is designed to make measurements of mRNA induction, a form of inducible reporter, as detected with fluorescence intensity signals by Reverse transcription polymerase chain reaction (RT-PCR) and Capillary electrophoresis technology.The assay endpoint ATG_hPPARa_EcoTox2 was analyzed in the positive analysis fitting direction relative to DMSO as the negative control and baseline of activity. Using a type of inducible reporter, measures of mRNA for gain-of-signal activity can be used to understand the reporter gene at the transcription factor-level as they relate to the gene PPARa. Furthermore, this assay endpoint can be referred to as a primary readout, because this assay has produced multiple assay endpoints where this one serves a reporter gene function. […]
smiles,measurement,value
Cc1ccc(C)c(OCCCC(C)(C)C(=O)O)c1,AC50,active: 31.1 µM
